For at least one compound, name, drawing or mass did not settle the structure.
Experiment: In vitro skin flux from PSA matrix patches and hydroalcoholic gels (modified Franz diffusion cells)
Conditions: 24-hour skin flux of the drug from DuroTak-2979 PSA patch with 0.5% BzthCl, relative to 0% enhancer

C[C@]12CC[C@@H]3c4ccc(O)cc4CC[C@H]3[C@@H]1CC[C@@H]2O [Estradiol, estradiol]
% Increase in Q24: 38 (15%)
